Our source for the log2 fold change values is the supplement of paper PMC10849652.

Chains of the proteins cited; added tags and fusions are not shown. Lines headed by an entry give the natural chain unless they say otherwise; changes in a name come on top.
UniProt Q96FN4: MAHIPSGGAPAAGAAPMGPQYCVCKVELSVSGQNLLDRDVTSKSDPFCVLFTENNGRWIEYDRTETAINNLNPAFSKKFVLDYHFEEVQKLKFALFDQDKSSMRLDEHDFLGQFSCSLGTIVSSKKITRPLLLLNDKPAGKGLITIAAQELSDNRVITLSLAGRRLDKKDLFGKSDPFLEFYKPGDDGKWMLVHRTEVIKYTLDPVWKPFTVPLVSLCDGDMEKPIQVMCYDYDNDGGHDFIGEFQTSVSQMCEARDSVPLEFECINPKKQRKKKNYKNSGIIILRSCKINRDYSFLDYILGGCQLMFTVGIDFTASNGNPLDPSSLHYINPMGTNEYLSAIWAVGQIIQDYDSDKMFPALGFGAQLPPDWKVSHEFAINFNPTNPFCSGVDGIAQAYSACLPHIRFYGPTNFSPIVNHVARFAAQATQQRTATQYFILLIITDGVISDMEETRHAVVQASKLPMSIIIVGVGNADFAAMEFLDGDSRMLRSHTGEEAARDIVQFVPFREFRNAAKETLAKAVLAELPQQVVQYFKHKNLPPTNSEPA
UniProt Q08257: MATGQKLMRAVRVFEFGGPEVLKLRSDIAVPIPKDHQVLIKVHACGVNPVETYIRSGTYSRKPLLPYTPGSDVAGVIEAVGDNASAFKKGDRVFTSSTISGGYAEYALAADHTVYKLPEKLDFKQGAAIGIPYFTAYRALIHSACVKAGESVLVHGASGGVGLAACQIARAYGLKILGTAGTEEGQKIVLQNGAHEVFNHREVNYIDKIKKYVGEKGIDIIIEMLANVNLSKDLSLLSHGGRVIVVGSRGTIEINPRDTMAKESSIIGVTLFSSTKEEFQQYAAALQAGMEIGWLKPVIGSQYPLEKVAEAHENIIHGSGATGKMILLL
UniProt Q8N684: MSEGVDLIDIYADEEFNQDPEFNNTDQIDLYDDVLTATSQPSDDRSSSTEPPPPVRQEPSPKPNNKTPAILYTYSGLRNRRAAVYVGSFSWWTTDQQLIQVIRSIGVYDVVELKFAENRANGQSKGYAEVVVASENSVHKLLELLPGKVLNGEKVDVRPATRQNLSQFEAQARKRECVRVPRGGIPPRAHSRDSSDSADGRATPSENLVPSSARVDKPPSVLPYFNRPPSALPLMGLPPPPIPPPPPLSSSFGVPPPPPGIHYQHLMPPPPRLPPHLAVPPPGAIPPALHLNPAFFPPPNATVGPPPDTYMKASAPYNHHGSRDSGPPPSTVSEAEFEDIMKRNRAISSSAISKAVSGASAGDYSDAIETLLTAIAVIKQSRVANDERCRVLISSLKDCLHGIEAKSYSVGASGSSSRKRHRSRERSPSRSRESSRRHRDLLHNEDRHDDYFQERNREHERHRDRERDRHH
UniProt Q86X83, whole entry, looked up: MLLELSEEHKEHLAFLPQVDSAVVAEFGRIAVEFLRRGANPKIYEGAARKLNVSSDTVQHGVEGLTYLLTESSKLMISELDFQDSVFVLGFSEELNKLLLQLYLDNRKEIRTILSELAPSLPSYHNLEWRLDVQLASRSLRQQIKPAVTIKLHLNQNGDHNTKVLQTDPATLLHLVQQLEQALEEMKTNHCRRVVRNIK
UniProt P21964: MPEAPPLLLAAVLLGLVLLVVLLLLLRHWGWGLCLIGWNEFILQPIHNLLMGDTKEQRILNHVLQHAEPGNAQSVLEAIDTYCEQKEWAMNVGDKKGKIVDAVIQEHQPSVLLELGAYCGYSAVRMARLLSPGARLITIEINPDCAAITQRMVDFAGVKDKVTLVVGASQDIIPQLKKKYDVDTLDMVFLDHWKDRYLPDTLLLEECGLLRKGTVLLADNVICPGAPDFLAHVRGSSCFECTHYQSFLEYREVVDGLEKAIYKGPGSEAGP
UniProt Q9UNS2: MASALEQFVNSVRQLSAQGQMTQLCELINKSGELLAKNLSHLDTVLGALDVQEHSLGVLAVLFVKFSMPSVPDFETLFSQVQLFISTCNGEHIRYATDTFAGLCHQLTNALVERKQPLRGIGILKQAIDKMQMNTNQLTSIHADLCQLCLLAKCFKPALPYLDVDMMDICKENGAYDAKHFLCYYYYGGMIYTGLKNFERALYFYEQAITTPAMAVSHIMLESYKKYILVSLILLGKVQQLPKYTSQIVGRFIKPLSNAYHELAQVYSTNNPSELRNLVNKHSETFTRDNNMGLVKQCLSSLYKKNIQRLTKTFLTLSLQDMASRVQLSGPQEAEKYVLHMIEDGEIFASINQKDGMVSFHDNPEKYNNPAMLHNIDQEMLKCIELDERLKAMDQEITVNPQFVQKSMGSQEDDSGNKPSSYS
UniProt Q8N668, whole entry, looked up: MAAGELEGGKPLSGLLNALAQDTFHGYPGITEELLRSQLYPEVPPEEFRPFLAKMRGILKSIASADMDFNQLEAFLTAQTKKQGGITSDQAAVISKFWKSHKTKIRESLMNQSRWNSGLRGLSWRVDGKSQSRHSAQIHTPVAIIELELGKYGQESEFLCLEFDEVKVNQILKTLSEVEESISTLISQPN
UniProt Q99807: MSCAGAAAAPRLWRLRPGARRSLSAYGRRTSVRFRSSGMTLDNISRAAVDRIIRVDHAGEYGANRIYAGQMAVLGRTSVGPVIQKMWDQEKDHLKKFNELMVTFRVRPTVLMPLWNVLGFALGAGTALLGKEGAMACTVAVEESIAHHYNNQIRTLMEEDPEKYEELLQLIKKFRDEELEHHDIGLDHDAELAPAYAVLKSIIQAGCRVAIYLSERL
UniProt P49747: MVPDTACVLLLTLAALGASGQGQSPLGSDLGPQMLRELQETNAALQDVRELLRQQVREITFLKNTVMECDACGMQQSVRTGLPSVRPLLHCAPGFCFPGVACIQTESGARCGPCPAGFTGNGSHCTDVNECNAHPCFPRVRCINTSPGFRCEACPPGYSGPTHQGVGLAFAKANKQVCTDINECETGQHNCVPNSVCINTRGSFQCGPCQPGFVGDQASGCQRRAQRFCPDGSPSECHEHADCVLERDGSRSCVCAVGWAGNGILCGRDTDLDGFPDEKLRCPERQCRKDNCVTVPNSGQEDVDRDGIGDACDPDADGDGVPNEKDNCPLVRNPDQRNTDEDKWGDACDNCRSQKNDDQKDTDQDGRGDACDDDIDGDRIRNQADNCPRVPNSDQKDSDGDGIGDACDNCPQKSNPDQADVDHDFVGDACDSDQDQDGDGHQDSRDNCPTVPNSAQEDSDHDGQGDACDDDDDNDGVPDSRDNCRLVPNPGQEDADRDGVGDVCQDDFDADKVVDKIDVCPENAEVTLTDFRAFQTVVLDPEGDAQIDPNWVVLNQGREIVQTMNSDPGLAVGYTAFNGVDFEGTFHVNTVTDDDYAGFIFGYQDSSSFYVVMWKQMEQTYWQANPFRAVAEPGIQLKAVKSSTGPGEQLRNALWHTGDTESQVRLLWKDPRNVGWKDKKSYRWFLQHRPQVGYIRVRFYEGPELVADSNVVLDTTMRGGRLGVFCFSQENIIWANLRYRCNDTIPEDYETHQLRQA
UniProt O75208: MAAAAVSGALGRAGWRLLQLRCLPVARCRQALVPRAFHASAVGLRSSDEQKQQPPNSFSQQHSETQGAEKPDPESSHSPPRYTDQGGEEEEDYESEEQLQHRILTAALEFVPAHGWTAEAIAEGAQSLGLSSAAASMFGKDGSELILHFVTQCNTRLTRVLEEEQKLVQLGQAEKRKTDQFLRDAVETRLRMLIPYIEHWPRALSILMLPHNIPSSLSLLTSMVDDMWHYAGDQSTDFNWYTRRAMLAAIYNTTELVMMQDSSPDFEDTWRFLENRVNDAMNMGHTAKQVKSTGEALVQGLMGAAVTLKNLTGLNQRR
UniProt Q17RY0: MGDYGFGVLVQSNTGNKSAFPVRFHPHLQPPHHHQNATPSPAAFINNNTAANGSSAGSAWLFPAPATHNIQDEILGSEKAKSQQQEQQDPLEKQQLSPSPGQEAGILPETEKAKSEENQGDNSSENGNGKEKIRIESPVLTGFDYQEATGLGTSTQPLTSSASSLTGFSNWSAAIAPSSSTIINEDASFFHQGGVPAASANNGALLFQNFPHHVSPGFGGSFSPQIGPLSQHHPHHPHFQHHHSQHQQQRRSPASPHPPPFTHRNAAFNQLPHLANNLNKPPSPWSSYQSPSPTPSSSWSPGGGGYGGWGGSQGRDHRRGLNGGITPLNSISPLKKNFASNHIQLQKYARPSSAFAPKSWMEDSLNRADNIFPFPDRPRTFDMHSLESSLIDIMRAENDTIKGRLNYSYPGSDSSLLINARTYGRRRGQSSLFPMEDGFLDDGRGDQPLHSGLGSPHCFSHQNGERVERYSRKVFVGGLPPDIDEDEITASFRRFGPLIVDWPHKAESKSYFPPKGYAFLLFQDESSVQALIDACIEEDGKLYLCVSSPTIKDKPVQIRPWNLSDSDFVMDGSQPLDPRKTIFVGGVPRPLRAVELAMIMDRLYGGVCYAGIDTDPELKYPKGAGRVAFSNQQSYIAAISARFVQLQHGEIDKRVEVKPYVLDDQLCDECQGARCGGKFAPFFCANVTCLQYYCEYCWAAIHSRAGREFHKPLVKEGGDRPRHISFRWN
UniProt Q9UBI1, whole entry, looked up: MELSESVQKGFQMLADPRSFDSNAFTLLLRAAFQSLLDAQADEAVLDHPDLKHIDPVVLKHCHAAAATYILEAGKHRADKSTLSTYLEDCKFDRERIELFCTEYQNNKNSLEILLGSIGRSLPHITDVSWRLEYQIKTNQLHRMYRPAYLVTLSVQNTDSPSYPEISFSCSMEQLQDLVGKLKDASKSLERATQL
UniProt P50416: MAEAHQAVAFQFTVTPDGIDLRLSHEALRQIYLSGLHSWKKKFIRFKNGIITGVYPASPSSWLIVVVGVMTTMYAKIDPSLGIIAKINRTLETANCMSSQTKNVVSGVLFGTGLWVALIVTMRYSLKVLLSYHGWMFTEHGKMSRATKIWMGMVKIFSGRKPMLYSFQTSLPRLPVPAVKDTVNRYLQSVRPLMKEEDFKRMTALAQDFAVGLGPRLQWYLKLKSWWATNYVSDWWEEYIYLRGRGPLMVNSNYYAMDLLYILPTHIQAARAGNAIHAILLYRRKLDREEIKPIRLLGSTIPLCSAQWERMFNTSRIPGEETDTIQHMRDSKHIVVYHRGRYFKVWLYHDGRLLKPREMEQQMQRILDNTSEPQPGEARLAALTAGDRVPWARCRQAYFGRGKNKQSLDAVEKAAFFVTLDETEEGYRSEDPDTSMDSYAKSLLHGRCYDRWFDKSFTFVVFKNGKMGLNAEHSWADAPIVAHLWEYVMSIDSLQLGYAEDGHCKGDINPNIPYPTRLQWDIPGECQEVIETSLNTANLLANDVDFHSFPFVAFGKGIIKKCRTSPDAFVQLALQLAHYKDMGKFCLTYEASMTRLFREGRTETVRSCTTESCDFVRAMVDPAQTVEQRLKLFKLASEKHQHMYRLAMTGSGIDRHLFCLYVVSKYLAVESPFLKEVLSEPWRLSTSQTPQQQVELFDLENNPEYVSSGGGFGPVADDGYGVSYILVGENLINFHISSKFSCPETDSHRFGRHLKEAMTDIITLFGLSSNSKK
UniProt P23786: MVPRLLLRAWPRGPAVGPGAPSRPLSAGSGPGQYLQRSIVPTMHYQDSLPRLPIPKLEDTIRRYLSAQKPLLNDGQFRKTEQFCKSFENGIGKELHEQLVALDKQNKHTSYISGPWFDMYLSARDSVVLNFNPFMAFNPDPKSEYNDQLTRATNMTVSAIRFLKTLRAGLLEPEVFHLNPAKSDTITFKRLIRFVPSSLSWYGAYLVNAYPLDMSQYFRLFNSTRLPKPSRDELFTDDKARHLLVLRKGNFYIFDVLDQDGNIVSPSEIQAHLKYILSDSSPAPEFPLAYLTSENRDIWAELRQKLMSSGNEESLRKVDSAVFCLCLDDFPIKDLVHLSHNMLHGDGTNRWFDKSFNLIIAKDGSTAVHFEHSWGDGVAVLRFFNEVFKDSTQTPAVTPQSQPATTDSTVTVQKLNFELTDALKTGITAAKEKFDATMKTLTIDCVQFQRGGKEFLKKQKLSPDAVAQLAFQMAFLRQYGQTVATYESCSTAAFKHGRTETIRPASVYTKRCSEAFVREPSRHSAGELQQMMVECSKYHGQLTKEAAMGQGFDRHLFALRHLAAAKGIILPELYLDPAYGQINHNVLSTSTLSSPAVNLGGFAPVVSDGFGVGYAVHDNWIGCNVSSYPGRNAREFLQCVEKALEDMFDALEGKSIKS
UniProt P12074, whole entry, looked up: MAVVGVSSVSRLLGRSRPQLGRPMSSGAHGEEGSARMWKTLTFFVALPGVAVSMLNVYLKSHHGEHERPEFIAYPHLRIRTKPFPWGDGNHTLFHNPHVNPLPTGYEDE
UniProt Q9H0A8, whole entry, looked up: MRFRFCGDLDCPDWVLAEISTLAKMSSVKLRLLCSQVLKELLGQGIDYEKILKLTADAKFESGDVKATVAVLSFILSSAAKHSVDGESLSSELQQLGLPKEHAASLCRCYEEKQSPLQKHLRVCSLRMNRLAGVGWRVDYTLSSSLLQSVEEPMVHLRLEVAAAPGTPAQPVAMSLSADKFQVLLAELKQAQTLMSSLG

Common to all, as to assay: log2 fold change, soluble protein after heating vs DMSO (PISA); higher = thermal stabilisation; K562 cells, 10 uM, 30 min; active = over 0.2 and 3.5 SD of the protein, either way, in both replicates (recomputed)
Compound in test [1]: CC[C@@H]1C(=O)N(C)c2cnc(Nc3ccc(C(=O)NC4CCN(C)CC4)cc3OC)nc2N1C1CCCC1
The method in brief:
(§1)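 Quantification of soluble protein used TMTpro 16plex LC-MS/MS, with channel sums equalised. Samples were the supernatant after 21,000xg for 90 min of pooled aliquots from K562 cells (2×10^6 cells/mL) treated with 10 μM compound for 30 min, heated for 3 min over 48°C-58°C, and extracted in PBS with 0.5% NP-40 at 4°C. Values, from duplicates, describe thermal stability against control samples on a log2 fold-change scale.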

Compound in test [2]: CC[C@@H]1C(=O)N(C)c2cnc(Nc3ccc(C(=O)N[C@H]4CC[C@H](N5CCN(CC6CC6)CC5)CC4)cc3OC)nc2N1C(C)C [volasertib]
The method in brief: as §1

Compound in test [3]: CC[C@H](C)N1C=C(C2=C(C=C(C=C21)C3=CN=C(C=C3)N4CCNCC4)C(=O)NCC5=C(C=C(NC5=O)C)C)C
The gist of the method:
as §1

Compound in test [4]: CC[C@H](C)[C@@H](C(=O)N[C@@H]([C@@H](C)O)C(=O)N[C@@H](CC(C)C)C(=O)[C@]1(CO1)C)NC(=O)[C@H]([C@@H](C)CC)N(C)C(=O)C [epoxomicin]
The method in brief: as §1

Compound in test [5]: CCn1c(C(=O)N(C2CC2)C2CC2)cc2c3c(ncn3C)c(Nc3cc(C)n(C)n3)nc21
The method in brief: as §1

Compound in test [6]: CCn1cc(-c2ccnc3[nH]c(-c4cccc(CN(C)C)c4)cc23)c(-c2ccc(NC(=O)N(C)C)cc2)n1
The gist of the method:
as §1

Compound in test [7]: CN(C)CC(=O)Nc1ccc2[nH]c(=O)c3ccccc3c2c1
The method in brief:
as §1

Compound in test [8]: CN(CCOC1=CC=C(C=C1)C[C@H]2C(=O)NC(=O)S2)C3=CC=CC=N3 (racemic) [rosiglitazone]
The gist of the method: as §1

Compound in test [9]: CN1C2=C(C3=C1C(=O)N(N=C3)CC4=CC(=CC=C4)N)SC(=C2)S(=O)C
The method in brief: as §1

Compound in test [10]: CN1CCC(CNc2ccc3ncc(-c4cccc(OC(F)(F)F)c4)n3n2)CC1
The method in brief: as §1

Some of the results follow.

On to CPNE2 (UniProt Q96FN4), for which the log2 fold change in [1] is inactive: 0.053; in [2], inactive: -0.127; in [3], inactive: 0.096; in test [4] it was inactive: 0.063; in test [5], inactive: -0.014; in [6], inactive: 0.074. The log2 fold change in test [7] is inactive: 0; in test [8], inactive: -0.006; in test [9] it was inactive: 0.115; in test [10], inactive: 0.098.

As to CRYZ (UniProt Q08257), the log2 fold change in test [1] was inactive: 0.007; in test [2] it was inactive: 0.027; in test [3] it was inactive: -0.02; in test [4], inactive: 0.005; in test [5] it was inactive: 0.013; in test [6], inactive: 0.011. The log2 fold change is inactive: 0.007 in test [7], inactive: 0.008 in [8], inactive: -0.082 in test [9] and inactive: 0.008 in test [10].

On to CPSF7 isoform 3 (UniProt Q8N684), for which the log2 fold change is inactive: 0.077 in test [1]; inactive: 0.039 in test [2]; inactive: 0.053 in test [3]; inactive: -0.042 in test [4]; inactive: -0.015 in test [6]; inactive: -0.014 in test [7]. Further, the log2 fold change in [9] is inactive: -0.001; in [10], inactive: 0.006.

With COMMD2 (UniProt Q86X83), the log2 fold change in [1] was inactive: -0.004; in test [2] it was inactive: -0.264; in test [3], inactive: 0.07; in test [4], inactive: -0.088; in test [6], inactive: -0.005; in test [7], inactive: -0.108. The log2 fold change was inactive: 0 in [9] and inactive: -0.209 in [10].

Take COMT (UniProt P21964): the log2 fold change in [1] was inactive: 0.013; in test [2], inactive: 0.073; in test [3], inactive: 0.01; in test [4], inactive: -0.023; in test [6], inactive: -0.01; in [7], inactive: 0.005. The log2 fold change in test [9] was inactive: -0.11; in test [10] it was inactive: 0.142.

COPS3 (UniProt Q9UNS2): the log2 fold change in test [1] is inactive: 0.001; in test [2], inactive: -0.017; in [3] it was inactive: -0.001; in test [4] it was inactive: 0.054; in [6] it was inactive: -0.014; in test [7], inactive: -0.017. Further, the log2 fold change in test [9] is inactive: -0.038; in [10] it was inactive: -0.03.

Take COPS4 (UniProt Q9BT78): the log2 fold change in test [1] is inactive: -0.045; in test [2], inactive: -0.007; in test [3], inactive: 0.013; in test [4] it was inactive: 0.047; in [6], inactive: -0.022; in test [7] it was inactive: 0.023. Moreover, the log2 fold change in test [9] was inactive: -0.092; in [10], inactive: -0.007.

For the target CRYM-AS1 (UniProt A6NIL9), the log2 fold change in test [1] is inactive: -0.04; in test [3], inactive: 0.233; in test [4], inactive: -0.107; in [6], inactive: -0.029; in [7], inactive: 0.089; in [9], inactive: 0.04. The log2 fold change in test [10] was active: -0.714.

For the target COMMD1 (UniProt Q8N668), the log2 fold change in test [1] is inactive: -0.029; in [2], inactive: -0.041; in test [3], inactive: 0.054; in [4], inactive: -0.071; in [6], inactive: 0.157; in test [7] it was inactive: 0.019. For the same target, the log2 fold change in test [10] is inactive: 0.295.

For the target COQ7 (UniProt Q99807), the log2 fold change is inactive: -0.035 in test [1]; inactive: -0.009 in test [2]; inactive: -0.01 in test [3]; inactive: 0.013 in [4]; inactive: -0.041 in [6]; inactive: -0.047 in test [7]. Besides, the log2 fold change is inactive: 0.023 in test [9] and inactive: -0.05 in [10].

As for COMP (UniProt P49747), the log2 fold change in test [1] was inactive: 0.132; in test [2], inactive: -0.049; in test [5] it was inactive: -0.003; in [6], inactive: 0.046; in [8] it was inactive: 0.061; in test [9], inactive: 0.278. Further, the log2 fold change in test [10] is inactive: -0.089.

On to COQ9 (UniProt O75208), for which the log2 fold change is inactive: -0.04 in [1]; inactive: -0.05 in test [2]; inactive: 0.001 in test [3]; inactive: -0.041 in [4]; inactive: 0.002 in [6]; inactive: 0.018 in [7]. In addition, the log2 fold change in [9] is inactive: -0.057; in test [10], inactive: -0.135.

As to CPNE7 (UniProt Q9UBL6), the log2 fold change in test [1] is inactive: -0.119; in [2], inactive: -0.057; in [3], inactive: 0.042; in [5] it was inactive: -0.093; in test [7], inactive: -0.03; in test [8] it was inactive: 0.048. The log2 fold change in test [9] is inactive: -0.035.

For CPEB4 (UniProt Q17RY0), the log2 fold change in test [1] is inactive: 0.081; in [2], inactive: -0.092; in test [6], inactive: 0.095; in [7], inactive: 0; in test [8] it was inactive: 0.032; in test [9], inactive: 0.077. Further, in test [10], the log2 fold change is inactive: -0.051.

With COMMD3 (UniProt Q9UBI1), the log2 fold change was inactive: -0.129 in test [1]; inactive: -0.432 in test [2]; inactive: 0.07 in [3]; inactive: -0.09 in test [7]; inactive: 0.043 in test [8]; inactive: 0.001 in [9].

As for CPT1A (UniProt P50416), the log2 fold change in [1] is inactive: -0.048; in [2], inactive: -0.047; in [3], inactive: 0.045; in [4], inactive: -0.003; in [6], inactive: -0.064; in test [7] it was inactive: 0.013. The results for the log2 fold change in test [9] and in test [10] were inactive: -0.053 and active: 0.333, respectively.

In the case of CPT2 (UniProt P23786), the log2 fold change in [1] is inactive: 0.235; in test [2], active: 0.912; in test [3], inactive: -0.019; in test [4], inactive: 0.011; in test [6] it was inactive: 0.384; in test [7], inactive: 0.088. The results for the log2 fold change in test [9] and in test [10] were inactive: -0.136 and active: -0.613, respectively.

Consider COX6A1 (UniProt P12074), for which the log2 fold change was inactive: 0.018 in [1]; inactive: 0.091 in test [2]; inactive: 0.027 in test [3]; inactive: 0 in [5]; inactive: 0.017 in [7]; inactive: -0.015 in test [8]. Moreover, the log2 fold change in test [9] was inactive: -0.007.

As for COMMD4 (UniProt Q9H0A8), the log2 fold change is inactive: -0.157 in [1]; inactive: 0.032 in test [3]; inactive: 0.02 in [4]; inactive: -0.025 in [5]; inactive: -0.129 in test [6]; inactive: 0.03 in test [7]. Further, the log2 fold change in [8] is inactive: 0.049; in test [9], inactive: 0.092; in [10], inactive: 0.016.
